Measured values reported in the supplement of paper PMC10849652.
Some of the results follow.

Sequences of proteins named here, by UniProt entry; tags and fusion partners are left off. A change or cut given only in a name is not applied to a line headed by its entry.
UniProt Q9P289: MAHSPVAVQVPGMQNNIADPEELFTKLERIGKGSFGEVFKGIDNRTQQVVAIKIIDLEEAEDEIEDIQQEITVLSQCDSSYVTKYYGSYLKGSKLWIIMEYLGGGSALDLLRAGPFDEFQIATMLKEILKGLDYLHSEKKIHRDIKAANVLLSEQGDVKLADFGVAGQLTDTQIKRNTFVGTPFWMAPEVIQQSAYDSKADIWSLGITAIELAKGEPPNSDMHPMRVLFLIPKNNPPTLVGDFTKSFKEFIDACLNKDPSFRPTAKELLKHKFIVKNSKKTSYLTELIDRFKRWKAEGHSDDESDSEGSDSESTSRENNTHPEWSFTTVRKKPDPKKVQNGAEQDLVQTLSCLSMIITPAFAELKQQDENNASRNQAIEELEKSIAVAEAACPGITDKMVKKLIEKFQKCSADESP
UniProt Q9Y6Q2: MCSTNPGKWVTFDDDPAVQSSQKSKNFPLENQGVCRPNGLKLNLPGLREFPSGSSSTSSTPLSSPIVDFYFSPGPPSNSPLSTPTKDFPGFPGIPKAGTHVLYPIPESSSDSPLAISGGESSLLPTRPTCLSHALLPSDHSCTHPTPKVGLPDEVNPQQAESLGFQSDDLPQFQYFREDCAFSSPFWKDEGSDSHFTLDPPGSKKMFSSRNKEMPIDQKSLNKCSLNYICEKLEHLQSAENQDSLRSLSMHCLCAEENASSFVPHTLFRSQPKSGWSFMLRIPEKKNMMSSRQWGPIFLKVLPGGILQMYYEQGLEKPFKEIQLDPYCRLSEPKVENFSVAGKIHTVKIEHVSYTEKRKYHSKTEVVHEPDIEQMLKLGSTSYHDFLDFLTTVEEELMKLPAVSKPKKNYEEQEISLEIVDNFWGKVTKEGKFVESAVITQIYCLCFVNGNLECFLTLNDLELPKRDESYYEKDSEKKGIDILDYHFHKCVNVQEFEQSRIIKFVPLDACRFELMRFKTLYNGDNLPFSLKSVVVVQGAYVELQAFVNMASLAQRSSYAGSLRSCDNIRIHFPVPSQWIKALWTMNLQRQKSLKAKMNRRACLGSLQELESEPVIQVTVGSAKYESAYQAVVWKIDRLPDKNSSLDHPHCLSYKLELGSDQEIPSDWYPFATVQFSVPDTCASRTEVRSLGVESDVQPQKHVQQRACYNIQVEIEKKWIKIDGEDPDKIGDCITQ
UniProt Q9Y2H1: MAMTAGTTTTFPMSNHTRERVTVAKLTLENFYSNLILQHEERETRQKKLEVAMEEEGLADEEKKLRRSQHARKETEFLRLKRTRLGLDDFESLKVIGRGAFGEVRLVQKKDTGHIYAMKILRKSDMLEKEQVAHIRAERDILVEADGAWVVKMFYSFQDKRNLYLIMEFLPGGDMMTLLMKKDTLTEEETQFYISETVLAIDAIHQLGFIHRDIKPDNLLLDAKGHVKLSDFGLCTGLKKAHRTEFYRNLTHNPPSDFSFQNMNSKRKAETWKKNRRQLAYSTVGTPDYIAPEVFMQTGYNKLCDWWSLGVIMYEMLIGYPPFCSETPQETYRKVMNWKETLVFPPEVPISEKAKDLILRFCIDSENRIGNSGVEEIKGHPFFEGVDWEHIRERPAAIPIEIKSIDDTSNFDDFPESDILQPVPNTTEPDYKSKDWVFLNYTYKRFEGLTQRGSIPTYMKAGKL
UniProt O94768: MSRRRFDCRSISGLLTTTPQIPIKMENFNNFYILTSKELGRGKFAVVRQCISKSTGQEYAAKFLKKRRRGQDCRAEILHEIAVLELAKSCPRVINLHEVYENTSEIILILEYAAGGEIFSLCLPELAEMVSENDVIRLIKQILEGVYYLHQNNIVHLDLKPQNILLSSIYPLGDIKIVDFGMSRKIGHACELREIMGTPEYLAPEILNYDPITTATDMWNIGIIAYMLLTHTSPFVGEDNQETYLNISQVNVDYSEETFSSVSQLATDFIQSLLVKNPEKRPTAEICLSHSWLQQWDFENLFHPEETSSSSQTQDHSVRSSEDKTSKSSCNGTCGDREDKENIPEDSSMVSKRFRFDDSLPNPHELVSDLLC
UniProt Q8TDR2: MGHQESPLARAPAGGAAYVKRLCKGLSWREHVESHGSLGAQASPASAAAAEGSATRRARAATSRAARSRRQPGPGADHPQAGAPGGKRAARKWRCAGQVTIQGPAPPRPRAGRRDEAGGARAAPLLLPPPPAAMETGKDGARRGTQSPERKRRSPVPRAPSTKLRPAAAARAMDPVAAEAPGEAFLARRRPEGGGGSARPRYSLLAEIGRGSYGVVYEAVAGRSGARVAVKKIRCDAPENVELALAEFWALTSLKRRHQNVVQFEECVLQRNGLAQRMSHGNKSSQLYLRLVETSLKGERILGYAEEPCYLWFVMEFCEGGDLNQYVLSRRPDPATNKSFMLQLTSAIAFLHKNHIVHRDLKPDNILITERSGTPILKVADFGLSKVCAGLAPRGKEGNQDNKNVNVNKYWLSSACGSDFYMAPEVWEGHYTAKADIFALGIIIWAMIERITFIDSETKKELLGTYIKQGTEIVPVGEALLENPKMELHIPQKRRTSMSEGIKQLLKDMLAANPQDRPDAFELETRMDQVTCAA
UniProt O75478: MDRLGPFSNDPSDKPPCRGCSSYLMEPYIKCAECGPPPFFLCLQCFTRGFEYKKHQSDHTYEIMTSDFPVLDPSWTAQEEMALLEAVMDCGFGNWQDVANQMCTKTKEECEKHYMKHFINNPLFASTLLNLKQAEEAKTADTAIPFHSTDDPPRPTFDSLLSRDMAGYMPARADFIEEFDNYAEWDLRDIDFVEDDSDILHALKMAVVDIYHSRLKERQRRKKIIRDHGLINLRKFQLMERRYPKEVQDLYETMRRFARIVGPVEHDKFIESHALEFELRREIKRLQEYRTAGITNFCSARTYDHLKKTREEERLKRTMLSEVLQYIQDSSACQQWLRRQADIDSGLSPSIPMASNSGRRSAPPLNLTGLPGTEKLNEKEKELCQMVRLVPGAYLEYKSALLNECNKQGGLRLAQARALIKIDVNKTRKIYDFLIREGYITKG
UniProt Q86TL2: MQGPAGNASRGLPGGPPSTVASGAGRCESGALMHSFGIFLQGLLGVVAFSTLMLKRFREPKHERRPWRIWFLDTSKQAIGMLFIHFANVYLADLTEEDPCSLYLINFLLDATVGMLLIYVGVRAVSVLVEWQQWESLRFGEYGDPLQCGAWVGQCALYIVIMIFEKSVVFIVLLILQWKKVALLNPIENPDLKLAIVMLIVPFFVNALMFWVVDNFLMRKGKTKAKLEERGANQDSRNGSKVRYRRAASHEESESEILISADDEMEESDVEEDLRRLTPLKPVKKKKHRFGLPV
UniProt Q86TJ2: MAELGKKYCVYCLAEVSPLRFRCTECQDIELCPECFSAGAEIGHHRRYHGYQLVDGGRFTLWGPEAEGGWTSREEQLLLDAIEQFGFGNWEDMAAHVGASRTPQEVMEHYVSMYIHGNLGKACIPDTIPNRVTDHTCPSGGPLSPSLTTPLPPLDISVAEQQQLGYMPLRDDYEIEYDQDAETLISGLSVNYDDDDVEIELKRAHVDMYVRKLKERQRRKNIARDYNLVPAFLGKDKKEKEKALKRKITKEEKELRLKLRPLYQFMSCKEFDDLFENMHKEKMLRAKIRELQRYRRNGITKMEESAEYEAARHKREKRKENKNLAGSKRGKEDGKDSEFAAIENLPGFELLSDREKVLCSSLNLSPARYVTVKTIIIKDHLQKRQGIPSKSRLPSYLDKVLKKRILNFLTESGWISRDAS
UniProt Q9UMX1: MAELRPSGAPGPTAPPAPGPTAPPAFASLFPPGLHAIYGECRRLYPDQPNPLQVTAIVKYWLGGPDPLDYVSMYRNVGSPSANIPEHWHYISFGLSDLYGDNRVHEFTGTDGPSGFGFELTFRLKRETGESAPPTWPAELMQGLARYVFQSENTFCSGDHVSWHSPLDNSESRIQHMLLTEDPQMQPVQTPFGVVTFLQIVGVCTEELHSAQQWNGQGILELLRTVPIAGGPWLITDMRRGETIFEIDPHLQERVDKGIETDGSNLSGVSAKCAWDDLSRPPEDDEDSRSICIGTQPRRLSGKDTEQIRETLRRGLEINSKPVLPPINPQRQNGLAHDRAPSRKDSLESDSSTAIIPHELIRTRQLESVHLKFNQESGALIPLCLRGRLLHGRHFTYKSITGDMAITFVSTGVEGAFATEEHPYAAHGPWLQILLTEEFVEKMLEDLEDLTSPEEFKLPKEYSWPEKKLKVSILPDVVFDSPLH
UniProt P49842: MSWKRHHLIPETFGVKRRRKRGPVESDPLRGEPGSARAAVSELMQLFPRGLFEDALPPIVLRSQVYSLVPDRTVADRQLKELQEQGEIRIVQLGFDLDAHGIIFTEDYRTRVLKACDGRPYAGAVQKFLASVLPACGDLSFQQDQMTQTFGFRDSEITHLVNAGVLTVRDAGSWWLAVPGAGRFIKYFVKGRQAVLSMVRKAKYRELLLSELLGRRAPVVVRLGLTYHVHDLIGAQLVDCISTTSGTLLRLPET
UniProt Q13188: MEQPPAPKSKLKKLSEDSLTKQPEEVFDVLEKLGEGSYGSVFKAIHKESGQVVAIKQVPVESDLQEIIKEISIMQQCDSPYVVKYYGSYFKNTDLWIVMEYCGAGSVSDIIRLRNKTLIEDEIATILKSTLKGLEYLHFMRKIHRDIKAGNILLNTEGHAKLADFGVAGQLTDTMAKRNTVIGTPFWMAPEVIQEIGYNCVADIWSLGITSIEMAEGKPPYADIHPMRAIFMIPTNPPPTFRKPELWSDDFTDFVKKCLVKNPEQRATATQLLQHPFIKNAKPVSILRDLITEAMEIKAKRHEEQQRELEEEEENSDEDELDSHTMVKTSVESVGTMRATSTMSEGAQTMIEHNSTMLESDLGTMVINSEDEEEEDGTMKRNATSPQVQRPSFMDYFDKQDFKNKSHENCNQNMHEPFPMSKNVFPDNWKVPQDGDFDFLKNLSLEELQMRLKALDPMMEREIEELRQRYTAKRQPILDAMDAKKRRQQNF
UniProt P08842: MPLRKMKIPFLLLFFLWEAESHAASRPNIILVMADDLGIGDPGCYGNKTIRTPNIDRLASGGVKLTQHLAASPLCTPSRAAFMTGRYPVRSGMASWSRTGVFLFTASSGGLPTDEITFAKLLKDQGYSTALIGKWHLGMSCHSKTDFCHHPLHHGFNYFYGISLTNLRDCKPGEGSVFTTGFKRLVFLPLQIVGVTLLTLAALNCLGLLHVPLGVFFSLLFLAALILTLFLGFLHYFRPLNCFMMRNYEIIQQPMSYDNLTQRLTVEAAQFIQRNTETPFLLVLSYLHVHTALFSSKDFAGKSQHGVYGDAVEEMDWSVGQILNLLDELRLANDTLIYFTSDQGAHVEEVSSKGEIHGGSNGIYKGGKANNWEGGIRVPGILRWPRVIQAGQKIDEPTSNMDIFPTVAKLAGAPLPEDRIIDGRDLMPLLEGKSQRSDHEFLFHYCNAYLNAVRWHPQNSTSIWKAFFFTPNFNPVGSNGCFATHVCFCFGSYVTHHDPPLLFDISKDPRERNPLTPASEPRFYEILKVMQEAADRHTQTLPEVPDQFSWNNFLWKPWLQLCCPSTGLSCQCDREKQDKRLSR
UniProt O94804: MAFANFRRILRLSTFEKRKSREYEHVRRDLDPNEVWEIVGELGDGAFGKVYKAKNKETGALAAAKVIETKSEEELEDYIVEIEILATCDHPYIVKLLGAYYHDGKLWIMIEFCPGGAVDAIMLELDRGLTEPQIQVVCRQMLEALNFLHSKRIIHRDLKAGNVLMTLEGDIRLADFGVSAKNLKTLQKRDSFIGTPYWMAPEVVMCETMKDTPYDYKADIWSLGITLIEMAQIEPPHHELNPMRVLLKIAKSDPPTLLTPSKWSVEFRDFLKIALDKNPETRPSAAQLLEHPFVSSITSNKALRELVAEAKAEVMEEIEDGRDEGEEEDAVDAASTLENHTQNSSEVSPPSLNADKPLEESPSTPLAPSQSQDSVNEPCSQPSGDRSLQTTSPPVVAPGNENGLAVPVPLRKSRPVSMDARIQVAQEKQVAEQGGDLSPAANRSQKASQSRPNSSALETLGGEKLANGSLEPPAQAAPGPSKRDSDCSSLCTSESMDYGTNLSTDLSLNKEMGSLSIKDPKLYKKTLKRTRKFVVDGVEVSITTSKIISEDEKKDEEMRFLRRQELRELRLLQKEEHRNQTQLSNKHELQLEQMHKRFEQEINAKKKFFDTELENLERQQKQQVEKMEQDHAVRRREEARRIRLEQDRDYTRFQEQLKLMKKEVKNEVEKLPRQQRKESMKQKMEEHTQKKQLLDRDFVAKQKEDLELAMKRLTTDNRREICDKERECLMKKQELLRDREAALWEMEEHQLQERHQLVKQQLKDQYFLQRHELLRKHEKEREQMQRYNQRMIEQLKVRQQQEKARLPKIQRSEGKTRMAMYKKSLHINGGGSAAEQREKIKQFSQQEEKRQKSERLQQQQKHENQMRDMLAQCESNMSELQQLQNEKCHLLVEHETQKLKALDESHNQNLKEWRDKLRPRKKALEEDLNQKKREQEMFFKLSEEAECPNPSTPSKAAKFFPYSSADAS

Experiments:
Assay in all cases: log2 fold change, soluble protein after heating vs DMSO (PISA); higher = thermal stabilisation; K562 lysate, 10 uM; active = over 0.2 and 3.5 SD of the protein, either way, in both replicates (recomputed)
[1] = compound: CN1CC[C@H](c2c(O)cc(O)c3c(=O)cc(-c4ccccc4Cl)oc23)[C@H](O)C1 [alvocidib]
How it was run: (§1)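 The values are log-two fold changes in thermal stability compared with solvent controls and come from duplicates. They were obtained by TMTpro 16plex LC-MS/MS, with channel sums equalised, on the supernatant after 21,000xg for 90 min. That supernatant came from crude K562 extract at 1 mg/mL protein treated with 10 μM compound for 30 min, heated for 3 min across 48°C-58°C, pooled and brought to 0.5% NP-40 at 4°C.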

[2] = compound: CN1CCc2c(c3ccccc3n2Cc2ccc(C(=O)NO)cc2)C1 [Tubastatin A]
How it was run: as §1

[3] = compound: CNC(=O)c1ccc(Nc2ncc(C(F)(F)F)c(NCc3nccnc3N(C)S(C)(=O)=O)n2)cc1 [defactinib]
How it was run: as §1

[4] = compound: CNc1nc(-c2ccc3c(N)n[nH]c3c2)cc(N2C[C@@H](C(=O)NC3CCCCC3)CC[C@H]2C)n1
How it was run: as §1

[5] = compound: COC(=O)N[C@@H](C)CNc1nccc(-c2cn(C(C)C)nc2-c2cc(Cl)cc(NS(C)(=O)=O)c2F)n1 [encorafenib]
How it was run: as §1

[6] = compound: COC(=O)[C@H](CCSC)NC(=O)C1=C(C=C(C=C1)NC[C@H](CS)N)C2=CC=CC=C2
How it was run: as §1

[7] = compound: COc1cc(Nc2ncc3c(n2)-c2ccc(Cl)cc2C(c2c(F)cccc2OC)=NC3)ccc1C(=O)O [alisertib]
How it was run: as §1

[8] = compound: COc1cc2ncnc(Nc3ccc(F)c(Cl)c3)c2cc1OCCCN1CCOCC1 [gefitinib]
How it was run: as §1

[9] = compound: CNC(=O)C1=CC=CC=C1NC2=NC(=NC=C2Cl)NC3=C(C=C(C=C3)N4CCOCC4)OC
How it was run: as §1

[10] = compound: COc1cc2nc(-c3cc(F)ccc3O)nc(N[C@@H]3CNC[C@H]3C(C)(C)O)c2cc1OC
How it was run: as §1

Row | Target | log2 fold change [1] | log2 fold change [2] | log2 fold change [3] | log2 fold change [4] | log2 fold change [5] | log2 fold change [6] | log2 fold change [7] | log2 fold change [8] | log2 fold change [9] | log2 fold change [10]
1 | TAF1C (UniProt Q15572) | inactive: 0.085 | inactive: -0.078 | inactive: -0.079 | inactive: -0.021 | inactive: -0.072 | inactive: -0.067 | inactive: 0.071 | inactive: -0.015 |  | 
2 | STK26 isoform 3 (UniProt Q9P289) |  |  |  | inactive: 0.058 | inactive: 0.034 | inactive: 0.001 |  |  |  | 
3 | TACC3 (UniProt C9JWI7) |  |  | inactive: -0.053 |  |  |  |  |  |  | 
4 | STON1 isoform 2 (UniProt Q9Y6Q2) |  | inactive: 0.034 |  |  |  |  | inactive: -0.017 | inactive: -0.163 | inactive: -0.011 | inactive: 0.096
5 | STK38L (UniProt Q9Y2H1) |  | inactive: -0.063 |  | inactive: 0.06 | inactive: -0.036 | inactive: 0.193 | inactive: 0.06 | inactive: -0.049 | active: 0.647 | 
6 | STK17B (UniProt O94768) |  | inactive: -0.466 |  | inactive: 0.642 |  |  | inactive: 0.066 | inactive: 0.094 | inactive: 0.082 | 
7 | STK35 (UniProt Q8TDR2) |  |  |  | inactive: 0.057 | inactive: 0.023 | inactive: -0.017 |  |  |  | inactive: 0.021
8 | STMN3 (UniProt Q9NZ72) |  | inactive: 0.009 | inactive: 0.023 | inactive: 0.029 | inactive: -0.015 | inactive: -0.021 | inactive: -0.082 | inactive: -0.041 | inactive: 0.014 | inactive: -0.012
9 | SUGT1 isoform 2 (UniProt Q9Y2Z0) |  | inactive: 0.083 | inactive: -0.073 | inactive: -0.089 | inactive: -0.161 | inactive: -0.09 | inactive: 0.031 | inactive: 0.08 | inactive: 0.029 | inactive: 0.078
10 | TADA2A (UniProt O75478) |  | inactive: -0.14 |  |  |  |  | inactive: 0.02 | inactive: -0.05 | inactive: -0.099 | 
11 | STIMATE (UniProt Q86TL2) |  | inactive: 0 |  |  |  |  |  |  |  | 
12 | TAF1B (UniProt Q53T94) | inactive: 0.175 | inactive: -0.083 | inactive: -0.024 | inactive: 0.614 | inactive: 0.073 | inactive: -0.13 | inactive: -0.177 | inactive: 0.016 |  | inactive: -0.047
13 | TADA2B (UniProt Q86TJ2) |  |  | inactive: -0.135 | inactive: 0.017 |  |  | inactive: 0.003 | inactive: 0.135 | inactive: 0.063 | 
14 | SUFU (UniProt Q9UMX1) | inactive: -0.032 | inactive: -0.039 | inactive: 0.034 |  |  |  |  |  |  | inactive: -0.159
15 | STK19 (UniProt P49842) |  |  |  | inactive: -0.058 |  |  | inactive: 0.048 | inactive: -0.174 |  | 
16 | STK3 isoform 2 (UniProt Q13188) |  | inactive: -0.075 | inactive: 0.205 | inactive: 0.015 | inactive: -0.046 | inactive: -0.068 |  | inactive: 0.002 |  | inactive: 0.269
17 | STS (UniProt P08842) | inactive: 0.012 | inactive: -0.169 | inactive: -0.003 |  |  |  | inactive: 0.302 | inactive: 0.169 |  | 
18 | STK10 (UniProt O94804) |  | inactive: 0.213 |  | inactive: -0.207 |  |  |  |  | inactive: -0.06 | 

Just log2 fold change [7] (2 entries from above):

| Row | Target | log2 fold change [7] |
| --- | --- | --- |
| 9 | SUGT1 isoform 2 (UniProt Q9Y2Z0) | inactive: 0.031 |
| 10 | TADA2A (UniProt O75478) | inactive: 0.02 |
